Source: publication PMC8406308

Assays:
[1] = target: T1, endogenous API5 (apoptosis inhibitor 5) of DF-1 cells (chicken (endogenous in DF-1)) (UniProt Q5ZMW3); assay: co-IP; DF-1 cells infected with IBDV for 12 h; lysates precipitated with anti-API5 or anti-VP3 mouse MAb; Western blot
T1 sequence: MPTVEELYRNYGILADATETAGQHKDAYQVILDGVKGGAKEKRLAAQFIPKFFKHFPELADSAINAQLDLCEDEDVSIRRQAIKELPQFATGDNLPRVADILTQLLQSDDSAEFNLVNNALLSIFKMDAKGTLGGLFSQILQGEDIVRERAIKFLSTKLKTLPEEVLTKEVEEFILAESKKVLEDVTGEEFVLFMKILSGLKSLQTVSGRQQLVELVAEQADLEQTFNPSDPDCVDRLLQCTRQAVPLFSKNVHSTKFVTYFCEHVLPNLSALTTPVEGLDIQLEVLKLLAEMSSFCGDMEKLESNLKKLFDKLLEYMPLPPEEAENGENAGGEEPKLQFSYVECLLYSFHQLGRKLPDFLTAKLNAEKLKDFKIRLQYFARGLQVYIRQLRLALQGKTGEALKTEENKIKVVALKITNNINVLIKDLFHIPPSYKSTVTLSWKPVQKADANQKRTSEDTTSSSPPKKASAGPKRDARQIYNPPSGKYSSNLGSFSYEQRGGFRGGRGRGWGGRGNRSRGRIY

Flag-SENP1 = target: T2, Flag-SENP1 (UniProt Q9P0U3); assay: co-IP; HEK293T cells cotransfected for 48 h, lysed in NP-40 buffer; precipitated with anti-Flag, anti-Myc or anti-GFP mouse MAb and protein A/G agarose at 4°C; Western blot
T2 sequence: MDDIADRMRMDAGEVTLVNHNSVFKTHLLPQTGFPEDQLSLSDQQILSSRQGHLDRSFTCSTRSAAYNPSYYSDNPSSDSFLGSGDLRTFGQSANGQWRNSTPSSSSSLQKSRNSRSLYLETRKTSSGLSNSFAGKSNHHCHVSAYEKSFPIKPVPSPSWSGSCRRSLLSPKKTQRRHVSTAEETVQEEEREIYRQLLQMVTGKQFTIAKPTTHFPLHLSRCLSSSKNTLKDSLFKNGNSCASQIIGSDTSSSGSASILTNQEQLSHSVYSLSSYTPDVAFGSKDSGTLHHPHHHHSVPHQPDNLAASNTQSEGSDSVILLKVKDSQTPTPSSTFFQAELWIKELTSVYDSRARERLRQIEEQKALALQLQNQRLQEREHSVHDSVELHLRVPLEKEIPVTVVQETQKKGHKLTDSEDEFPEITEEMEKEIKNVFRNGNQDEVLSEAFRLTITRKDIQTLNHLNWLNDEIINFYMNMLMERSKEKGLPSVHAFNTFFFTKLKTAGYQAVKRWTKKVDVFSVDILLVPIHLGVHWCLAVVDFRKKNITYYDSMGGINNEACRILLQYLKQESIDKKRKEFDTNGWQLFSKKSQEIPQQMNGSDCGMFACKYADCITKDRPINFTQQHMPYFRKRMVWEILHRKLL

Flag-SENP2 (human) = target: T3, Flag-SENP2 (human) (UniProt Q9HC62); assay: as above
T3 sequence: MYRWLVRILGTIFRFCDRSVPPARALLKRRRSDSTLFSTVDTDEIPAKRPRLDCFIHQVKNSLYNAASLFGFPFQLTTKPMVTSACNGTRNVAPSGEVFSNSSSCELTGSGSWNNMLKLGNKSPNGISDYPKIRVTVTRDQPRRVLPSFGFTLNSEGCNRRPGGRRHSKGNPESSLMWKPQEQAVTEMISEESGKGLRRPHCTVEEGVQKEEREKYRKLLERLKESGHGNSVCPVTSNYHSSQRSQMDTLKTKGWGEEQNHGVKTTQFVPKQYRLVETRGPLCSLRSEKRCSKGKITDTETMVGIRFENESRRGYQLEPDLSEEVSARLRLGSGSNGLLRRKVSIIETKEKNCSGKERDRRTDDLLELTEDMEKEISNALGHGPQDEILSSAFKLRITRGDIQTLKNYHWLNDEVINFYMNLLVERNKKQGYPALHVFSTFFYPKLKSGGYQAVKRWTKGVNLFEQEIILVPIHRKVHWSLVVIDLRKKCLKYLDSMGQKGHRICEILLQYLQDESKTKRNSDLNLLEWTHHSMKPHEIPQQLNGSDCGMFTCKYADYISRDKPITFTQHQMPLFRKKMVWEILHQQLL

[2] = target: T4, Flag-API5 (apoptosis inhibitor 5) (Gallus (chicken)) (UniProt Q5ZMW3); assay: as above
T4 sequence: T1 sequence

[3] = target: GST-VP3 (infectious bursal disease virus (IBDV)); assay: pull-down; purified GST-VP3 incubated with His-API5 or SUMO3-API5 for 4 h at 4°C, then GST resin; washed five times with NP-40 buffer; Western blot; both purified

## Avibirnavirus infectious bursal disease virus (IBDV) viral protein VP3, from infection
[1]
  binding: binds

## Myc-VP3 (infectious bursal disease virus (IBDV))
Flag-SENP1
  binding: no binding
Flag-SENP2 (human)
  binding: no binding
[2]
  binding: binds

B1: His-API5 (protein, UniProt Q5ZMW3 1-523)
chain: T1 sequence
[3]
  binding: binds

These are yes or no findings as the source states them, for the method shown. For some assays here: Binding can be weak; no strength is given. For some assays here: Sequences can lack the tags named with a protein. For some assays here: Binding seen in cells or lysates may run through a third protein.
